Here are results for 18 molecules from the supplement of paper PMC8616043.

Structures can show the parent of a compound that is named as a salt. The list shows a part of the results. Repeats in this data set agree poorly, so a single value says little.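 Human U-2 OS cells stably expressing a GFP sensor with a nuclear import signal and classical export signal were transfected to produce PR50, a 50-repeat proline–arginine dipeptide from ALS/FTD gene C9ORF72. Nuclear-minus-cytoplasm GFP was scaled from DMSO (low) to PR-only (high), scored against plate test wells; strongly negative scores marked PR-reversing hits.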

The subject of this assay is U-2 OS NCT-C biosensor cells expressing PR50. The experiment in a line: Z-score of normalised NCT-C biosensor translocation index in PR50-expressing cells; higher = more nuclear biosensor (more disrupted nuclear export). To be noted: 3 µM; 24 h.
On to `CC(C)C[C@H](C(=O)O)c1cc(-c2ccc(C(F)(F)F)cc2)cc(-c2ccc(C(F)(F)F)cc2)c1`, for which the Z-score is inactive: -0.0335.
Regarding `CCN1CCc2nc(N)oc2CC1` [B-HT 933  dihydrochloride], the Z-score was inactive: 2.01.
As for `C[N+](C)(C)CCOC(=O)CCC(=O)OCC[N+](C)(C)C` [Succinylcholine Chloride·2H2O], the Z-score was inactive: 0.504.
Then `C[N+](C)(C)CCOC(=O)CCC(=O)OCC[N+](C)(C)C` [Succinylcholine chloride], with inactive: 0.0888.
`CC(Cc1ccc(O)c(O)c1)(NN)C(=O)O` (stereo not drawn) [S-(-)-Carbidopa]: the Z-score was inactive: 0.0521.
Consider `CN(C)c1ccc(O)c2c1C[C@H]1C[C@H]3[C@H](N(C)C)C(O)=C(C(N)=O)C(=O)[C@@]3(O)C(O)=C1C2=O` [Minocycline], for which the Z-score was inactive: -0.0187.
`CN(C)c1ccc(O)c2c1C[C@H]1C[C@H]3[C@H](N(C)C)C(O)=C(C(N)=O)C(=O)[C@@]3(O)C(O)=C1C2=O` [Minocycline·HCl]: the Z-score is inactive: -0.571.
Then `CN(C)c1ccc(O)c2c1C[C@H]1C[C@H]3[C@H](N(C)C)C(O)=C(C(N)=O)C(=O)[C@@]3(O)C(O)=C1C2=O` [Minocycline HCl], with inactive: 0.59.
Turning to `O=C1CCCC(=O)C1C(=O)c1ccc(C(F)(F)F)cc1[N+](=O)[O-]` [Nitisinone], the Z-score was inactive: -0.471.
Then `CN(C)CC/C=C1/c2ccccc2COc2ccc(CC(=O)O)cc21` [Olopatadine], with inactive: 0.0122; and `Clc1ccc(N2CCN(Cc3cc4ccccn4n3)CC2)cc1`, with inactive: -0.796; and `O=C(O)C1=CCCN(CCON=C(c2ccccc2)c2ccccc2)C1` [NO-711  hydrochloride], with inactive: 1.43.
The result for `C=C1CC[C@H]2C(=C)CC[C@H]3C(=C)C(=O)O[C@@H]3[C@@H]12` [Dehydrocostus lactone] reads inactive: -0.302; that for `CNC(=N)NCCC[C@H](N)C(=O)O` [NG-Monomethyl-L- arginine acetate], inactive: 0.155.
`C/C=C/C/C=C/CCC(=O)[C@H]1O[C@H]1C(N)=O` [Cerulenin]: the Z-score was inactive: -0.528.
Consider `CCCCCCCCCCCCCC[C@@H](O)[C@@H](O)[C@@H](CO)NC(C)=O` [C2 Phytoceramide], for which the Z-score was inactive: 0.193.
Consider `COCCc1ccc(OCC(O)CNC(C)C)cc1` (racemic) [(+-)-Metoprolol (+)- tartrate salt], for which the Z-score was inactive: -0.395.
As for `CC(N)(Cc1ccc(O)c(O)c1)C(=O)O` (racemic) [(+/-)-3-(3,4-  dihydroxyphenyl)-2- methyl-DL-alanine], the Z-score was inactive: -0.947.
